This assay can be described thus: qHTS Assay for Modulators of Lamin A Splicing. Conditions: HeLa LMNA splicing GFP/RFP minigene ratio, 48 h. Put shortly:
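S3 HeLa stable clones carrying a lamin A-EGFP splicing minigene plus DsRed2 were seeded at 600 cells/well in Opti-MEM with 2% FBS, pin-dosed and incubated 48 h at 37°C. Acumen cytometry (488 nm) gave the GFP/RFP total-intensity ratio.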

[1] abbreviates: measured here: RFP viability control channel.
Where [2] appears, read: measured here: GFP splicing reporter channel.

Some of the results follow. These are further read-outs of the screen, such as a control signal, another cell line or another target. No call is given for them. Compounds called inactive in the main read-out are mostly missing here. The note in brackets gives the kind of curve behind each potency; many fits are weak.

On to `O=C(c1cccc(Cl)c1)N1CCN(Cc2ccccc2F)CC1`, for which, under setting [1], the AC50 was 14.1 µM [rising, single point].

As for `O=C(CC1C(=O)NCCN1Cc1ccc(-c2ccccc2)cc1)NCc1ccccc1` (stereo not drawn), under setting [2], the AC50 is 8.91 µM [rising, single point].

Turning to `CCn1c(SCC(=O)N/N=C/c2ccc(O)c(OC)c2)nc2ccccc21`, the AC50 is, setting by setting: under setting [2], 1.58 µM [rising, partial curve]; under setting [1], 0.562 µM [rising, full curve].

As for `COc1cc(/C=C/C(=O)c2ccccc2O)cc(OC)c1OC`, the AC50 under setting [1] was 35.5 µM [falling, single point].

As for `Cc1cccc(CSCCNC(=O)c2ccc(CN3CCOCC3)cc2)c1`, the AC50 was 12.6 µM [rising, partial curve] under setting [2] and 22.4 µM [rising, single point] under setting [1].

Turning to `COc1ccc(Cc2nc3ccc(C(=O)NCc4ccc(OC)cc4OC)cc3o2)cc1`, under setting [1], the AC50 was 0.00501 µM [falling, full curve, poor fit].

Take `COc1cccc(-c2nc(NC(C)C)c3ccccc3n2)c1O`: the AC50 under setting [2] is 31.6 µM [rising, single point] and the AC50 under setting [1] was 0.0126 µM [falling, full curve, poor fit].

As for `Cc1c(C(=O)Nc2ccc(F)cc2)oc2ccc(S(=O)(=O)N3CC(C)CC(C)C3)cc12` (stereo not drawn), the AC50 under setting [1] was 2.82 µM [rising, full curve].

For the compound `Cc1ccc(N(C(=O)c2ccccc2Cl)C2=NC(C)CS2)c(C)c1` (stereo not drawn), under setting [1], the AC50 was 11.2 µM [rising, single point].

As to `CC(C)CCN(C(=S)Nc1cccc(F)c1)C1CCN(C(C)C)CC1`, the AC50 under setting [1] was 0.398 µM [falling, full curve, poor fit].

As for `COCCN(C(=O)CCl)C(C(=O)NC1CCCCC1)c1ccccc1C` (stereo not drawn), the AC50 under setting [2] was 22.4 µM [falling, single point] and the AC50 under setting [1] was 35.5 µM [falling, single point].

In the case of `O=C(N/N=C/c1cc(Br)ccc1O)C(c1ccncc1)N1CCOCC1` (stereo not drawn), the half-maximal activity concentration (AC50) is, setting by setting: under setting [2], 35.5 µM [rising, single point]; under setting [1], 31.6 µM [rising, single point].

Take `Cc1ccc(C)c(C(=O)CSc2n[nH]c(C(C)C)n2)c1`: the AC50 is, setting by setting: under setting [2], 11.2 µM [rising, partial curve, poor fit]; under setting [1], 14.1 µM [rising, partial curve, poor fit].

With `N#CC1=C(N)Oc2cc3ccccc3cc2C1c1cccs1` (stereo not drawn), the AC50 runs as follows: under setting [2], 2.24 µM [falling, partial curve, poor fit]; under setting [1], 2.51 µM [falling, partial curve, poor fit].

For `CC(C)NC(=O)c1cnc(N2CCN(c3ccccn3)CC2)c2ccccc12`, the AC50 reads like this: under setting [2], 14.1 µM [rising, partial curve]; under setting [1], 11.2 µM [rising, partial curve].

For the compound `c1ccc(C2CNCc3c2ccc2ccccc32)cc1` (stereo not drawn), the AC50 under setting [1] is 22.4 µM [rising, single point].

Turning to `O=C(CCl)Nc1cc2[nH]c(=O)[nH]c2cc1Br`, the AC50 runs as follows: under setting [2], 3.55 µM [falling, full curve, poor fit]; under setting [1], 35.5 µM [falling, single point].

On to `Cc1ccc(S(=O)(=O)N2CCC(=O)N(C(COCc3ccc(C(F)(F)F)cc3)Cc3ccccc3)CC2)cc1` (stereo not drawn), for which the AC50 by setting is: under setting [2], 7.08 µM [rising, partial curve]; under setting [1], 12.6 µM [rising, partial curve].

As to `O=C(NCCN1C(=O)S/C(=C\c2ccc(Cl)c(Cl)c2)C1=O)C1COc2ccccc2O1` (stereo not drawn), the AC50 under setting [2] is 5.62 µM [falling, single point].

For `Cc1nn(Cc2ccc(Cl)cc2)c(=O)n1N(C)c1ncc(C(F)(F)F)cc1Cl`, the AC50 under setting [1] was 20 µM [rising, single point].

On to `Clc1cccc(Cl)c1Cn1ccc(C2CC2)n1`, for which the AC50 under setting [2] is 0.501 µM [falling, full curve, poor fit].

In the case of `CCc1ccc(C2C(C#N)=C(N)C(C#N)(C#N)C3=CCC(C(C)(C)C)CC32)cc1` (stereo not drawn), the AC50 by setting is: under setting [2], 35.5 µM [falling, single point]; under setting [1], 22.4 µM [falling, single point].

As to `Brc1ccc(CNCc2cccs2)cc1`, the AC50 under setting [1] was 0.1 µM [rising, full curve, poor fit].

Turning to `O=Cc1ccccc1Oc1ccccc1`, the AC50 under setting [1] is 0.158 µM [falling, full curve, poor fit].

Consider `O=C(C1CC(Cl)CN1S(=O)(=O)c1ccc(Cl)cc1)N1CCOCC1` (stereo not drawn), for which the concentration at half-maximal activity (AC50) under setting [1] was 0.282 µM [falling, full curve, poor fit].

In the case of `CCOc1cccc(CNn2cnnc2)c1OCc1ccccc1Cl`, under setting [1], the AC50 was 0.794 µM [rising, single point].

Consider `COc1ccc2oc(=O)c(-c3csc(Nc4ccc(O)cc4)n3)cc2c1`, for which the AC50 was 35.5 µM [falling, single point] under setting [2] and 35.5 µM [falling, single point] under setting [1].

`CCc1ccc(NC(=O)Cn2c(=O)oc3cc(S(=O)(=O)N4CCOCC4)ccc32)cc1`: the AC50 under setting [1] was 11.2 µM [rising, partial curve].

In the case of `Cc1ccc(S(=O)(=O)c2c(N)n(-c3ccccc3)c3nc4ccccc4nc23)cc1`, the AC50 under setting [1] is 14.1 µM [rising, single point].

Take `CCc1ccc2nc3nc(C)cc(C)c3c(N)c2c1`: the AC50 under setting [1] is 14.1 µM [rising, partial curve].

Take `CCCc1c(C)nn(-c2ncccc2[N+](=O)[O-])c1C`: under setting [2], the AC50 was 20 µM [rising, partial curve].

Regarding `COc1ccc(/C=C(\C#N)C(=O)OCC(=O)NC2CC2)cc1`, the AC50 under setting [1] is 12.6 µM [falling, partial curve, poor fit].

As for `N#C/C(=C1\C(=O)Nc2c(Cl)cc(Cl)cc21)c1nnc2n1CCCCC2`, the AC50 is, setting by setting: under setting [2], 28.2 µM [rising, partial curve, poor fit]; under setting [1], 22.4 µM [rising, partial curve].

With `Cc1cc(C(=O)CSc2nnc(NCc3ccccc3)s2)c(C)n1C`, under setting [1], the AC50 is 31.6 µM [rising, single point].

Regarding `c1csc(CNc2cc(-c3ccoc3)ncn2)c1`, the AC50 under setting [2] is 15.8 µM [falling, single point].

As for `CCN(Cc1ccccc1)c1ccc(/C=N/NC(=O)c2cccc(S(=O)(=O)N3CCOCC3)c2)cc1`, the half-maximal activity concentration (AC50) runs as follows: under setting [2], 2.51 µM [rising, full curve]; under setting [1], 6.31 µM [rising, partial curve].

For `Cc1ccc(S(=O)(=O)NCCCCCC(=O)Nc2ccccc2)cc1`, the AC50 was 7.08 µM [rising, full curve, poor fit] under setting [2] and 7.94 µM [rising, partial curve] under setting [1].

Turning to `Cc1ccccc1NCc1cccn1-c1nnc(N2CCC(C)CC2)s1`, under setting [1], the AC50 was 35.5 µM [rising, single point].

Take `COc1cnn(-c2ccc(Br)cc2)c(=O)c1SCc1ccccc1`: the AC50 is 31.6 µM [rising, single point] under setting [2] and 31.6 µM [rising, single point] under setting [1].

Regarding `CCCNC(=O)c1cc(S(=O)(=O)N2CCc3ccccc32)ccc1F`, under setting [1], the AC50 is 35.5 µM [rising, single point].

With `CCN(CCCNC(=O)CCc1nc(-c2ccc(OC)cc2)no1)c1cccc(C)c1`, the AC50 under setting [1] was 31.6 µM [rising, single point].

For `CCOC(=O)c1c(C)[nH]c(C2=NNC(=Nc3ccccc3OC)SC2)c1C`, the AC50 under setting [1] is 25.1 µM [rising, single point].

Turning to `Cc1ccc(NC(=O)c2sc3nc4c(c(-c5ccco5)c3c2N)CCC4)cc1`, the AC50 under setting [2] is 0.2 µM [rising, full curve, poor fit] and the AC50 under setting [1] was 0.224 µM [rising, full curve, poor fit].

Turning to `CC(C)N1C(=O)S/C(=C/c2ccc(Sc3nc4ccccc4[nH]3)o2)C1=O`, the AC50 under setting [1] is 4.47 µM [rising, full curve].

With `CCOC(=O)c1cccc(NC(=O)c2ccc3nc(Cc4ccccc4)oc3c2)c1`, the AC50 runs as follows: under setting [2], 7.08 µM [rising, full curve, poor fit]; under setting [1], 7.08 µM [rising, full curve].

For the compound `COC(C(=O)NCc1ccccc1C)c1ccccc1` (stereo not drawn), the AC50 under setting [1] is 3.55 µM [rising, single point].

Consider `CC(C)NCC(O)COc1ccc(COCCOC(C)C)cc1` (stereo not drawn), for which, under setting [1], the AC50 was 0.0501 µM [rising, full curve].

Regarding `O=C(c1cc2nc(-c3ccc(F)cc3)cc(C(F)(F)F)n2n1)N1CCCC1`, under setting [2], the AC50 was 0.0398 µM [falling, full curve, poor fit].

As for `O=[N+]([O-])c1ccc(Oc2cnc3ccccc3n2)cc1`, the AC50 is, setting by setting: under setting [2], 35.5 µM [falling, single point]; under setting [1], 25.1 µM [falling, single point].

Regarding `CC(C)NC[C@@H](O)COc1ccc(CCOCC2CC2)cc1`, the AC50 under setting [2] is 2.51 µM [falling, partial curve] and the AC50 under setting [1] was 3.55 µM [falling, partial curve, poor fit].

On to `Cn1c(=O)n(C/C=C/c2ccccc2)c(=O)c2c1nc1n2CCN1c1ccccc1`, for which the AC50 under setting [1] is 3.55 µM [rising, partial curve].

Consider `COc1ccc(/C=C/C=C2\NC(=S)NC2=O)cc1`, for which the AC50 under setting [1] was 0.562 µM [rising, full curve, poor fit].

For the compound `COc1ccc(C)cc1-n1nnnc1SCc1cc(=O)n2cc(C)ccc2n1`, the AC50 runs as follows: under setting [2], 10 µM [rising, partial curve, poor fit]; under setting [1], 7.08 µM [rising, partial curve].

Take `O=C(Nc1ccc(F)cc1F)c1ccc(-n2cccn2)c([N+](=O)[O-])c1`: the AC50 under setting [2] is 0.02 µM [falling, full curve, poor fit].

For the compound `CCC(CC)COC(=O)C(C#N)c1nc2ccccc2nc1N1CCN(CC)CC1` (stereo not drawn), the AC50 is 11.2 µM [rising, partial curve, poor fit] under setting [2] and 15.8 µM [rising, single point] under setting [1].

In the case of `CCc1nnc(NC(=O)CSc2nc(-c3ccccc3)c(-c3ccccc3)o2)s1`, under setting [1], the AC50 is 5.01 µM [rising, single point].

These data come from PubChem BioAssay AID1487 (National Center for Advancing Translational Sciences (NCATS), 2009).
